From the supplement of paper PMC12819154, “High-throughput peptide-centric local stability assay extends protein–ligand identification to membrane proteins, tissues and bacteria” (Nature Structural & Molecular Biology, 2025)
The list shows a part of the results. Small differences around the control level are noise.

Sequences of proteins named here, by UniProt entry; tags and fusion partners are left off. A change or cut given only in a name is not applied to a line headed by its entry.
UniProt O88531: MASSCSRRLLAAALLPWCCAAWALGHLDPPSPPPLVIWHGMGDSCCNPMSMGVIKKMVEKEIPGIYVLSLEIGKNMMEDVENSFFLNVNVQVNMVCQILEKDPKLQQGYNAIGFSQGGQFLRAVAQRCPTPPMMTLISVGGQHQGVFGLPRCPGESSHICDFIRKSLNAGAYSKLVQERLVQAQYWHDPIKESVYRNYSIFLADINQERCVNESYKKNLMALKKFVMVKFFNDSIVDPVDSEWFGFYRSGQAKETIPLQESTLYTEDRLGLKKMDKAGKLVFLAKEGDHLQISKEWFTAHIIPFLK
UniProt O88428: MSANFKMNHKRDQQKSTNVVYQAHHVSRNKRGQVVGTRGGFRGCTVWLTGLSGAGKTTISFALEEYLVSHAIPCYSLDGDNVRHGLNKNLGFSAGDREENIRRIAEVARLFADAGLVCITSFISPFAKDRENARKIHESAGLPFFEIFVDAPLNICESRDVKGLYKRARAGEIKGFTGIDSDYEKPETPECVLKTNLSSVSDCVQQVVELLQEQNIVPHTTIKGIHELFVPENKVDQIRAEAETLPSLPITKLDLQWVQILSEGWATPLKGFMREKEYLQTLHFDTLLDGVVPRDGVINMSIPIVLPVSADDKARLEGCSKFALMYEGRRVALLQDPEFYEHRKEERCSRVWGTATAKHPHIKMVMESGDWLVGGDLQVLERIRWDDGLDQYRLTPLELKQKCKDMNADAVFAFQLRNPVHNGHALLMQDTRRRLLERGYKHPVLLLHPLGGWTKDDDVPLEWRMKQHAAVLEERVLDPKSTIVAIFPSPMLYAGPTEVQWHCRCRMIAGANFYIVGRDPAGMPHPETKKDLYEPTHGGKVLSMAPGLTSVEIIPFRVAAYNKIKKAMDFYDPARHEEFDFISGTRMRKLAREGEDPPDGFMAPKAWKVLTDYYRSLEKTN
UniProt O88470: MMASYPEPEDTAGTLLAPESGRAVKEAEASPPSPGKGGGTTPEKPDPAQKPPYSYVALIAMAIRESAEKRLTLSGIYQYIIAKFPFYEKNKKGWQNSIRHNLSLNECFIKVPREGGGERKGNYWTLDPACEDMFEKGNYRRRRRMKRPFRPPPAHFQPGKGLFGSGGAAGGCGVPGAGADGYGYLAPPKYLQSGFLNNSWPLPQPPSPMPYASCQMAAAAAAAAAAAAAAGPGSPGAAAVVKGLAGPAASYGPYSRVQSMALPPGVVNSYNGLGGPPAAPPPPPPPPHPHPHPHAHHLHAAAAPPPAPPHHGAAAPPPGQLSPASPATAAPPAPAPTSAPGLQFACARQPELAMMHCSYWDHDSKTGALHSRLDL
UniProt O70566: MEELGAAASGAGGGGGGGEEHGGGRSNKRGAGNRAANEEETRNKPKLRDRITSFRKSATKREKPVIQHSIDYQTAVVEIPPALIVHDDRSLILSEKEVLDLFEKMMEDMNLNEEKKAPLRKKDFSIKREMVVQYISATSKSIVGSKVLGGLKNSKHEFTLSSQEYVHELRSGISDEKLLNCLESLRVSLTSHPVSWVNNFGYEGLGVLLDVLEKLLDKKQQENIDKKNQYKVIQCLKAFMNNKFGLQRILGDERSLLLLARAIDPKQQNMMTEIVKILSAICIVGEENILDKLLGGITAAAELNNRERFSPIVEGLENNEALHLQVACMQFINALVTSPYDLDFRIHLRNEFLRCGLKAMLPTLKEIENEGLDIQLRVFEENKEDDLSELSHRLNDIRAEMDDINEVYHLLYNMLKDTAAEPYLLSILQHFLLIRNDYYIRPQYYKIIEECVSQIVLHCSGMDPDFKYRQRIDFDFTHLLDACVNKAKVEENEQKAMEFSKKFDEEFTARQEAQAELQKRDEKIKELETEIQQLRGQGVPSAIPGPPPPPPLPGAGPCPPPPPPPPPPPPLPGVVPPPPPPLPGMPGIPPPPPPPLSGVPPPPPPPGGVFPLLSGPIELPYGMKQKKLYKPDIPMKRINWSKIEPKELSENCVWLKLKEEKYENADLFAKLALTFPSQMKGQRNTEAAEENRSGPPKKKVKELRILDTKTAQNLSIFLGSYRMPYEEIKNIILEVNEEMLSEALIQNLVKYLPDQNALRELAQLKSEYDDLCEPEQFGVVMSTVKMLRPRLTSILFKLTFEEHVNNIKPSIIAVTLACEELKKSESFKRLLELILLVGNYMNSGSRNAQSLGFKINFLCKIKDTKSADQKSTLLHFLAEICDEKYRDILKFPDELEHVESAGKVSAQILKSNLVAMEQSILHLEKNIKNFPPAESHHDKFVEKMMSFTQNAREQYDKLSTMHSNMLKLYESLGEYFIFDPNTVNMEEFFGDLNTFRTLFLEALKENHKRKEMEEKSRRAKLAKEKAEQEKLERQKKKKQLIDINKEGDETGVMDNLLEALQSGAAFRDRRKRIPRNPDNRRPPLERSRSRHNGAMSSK
UniProt O55222: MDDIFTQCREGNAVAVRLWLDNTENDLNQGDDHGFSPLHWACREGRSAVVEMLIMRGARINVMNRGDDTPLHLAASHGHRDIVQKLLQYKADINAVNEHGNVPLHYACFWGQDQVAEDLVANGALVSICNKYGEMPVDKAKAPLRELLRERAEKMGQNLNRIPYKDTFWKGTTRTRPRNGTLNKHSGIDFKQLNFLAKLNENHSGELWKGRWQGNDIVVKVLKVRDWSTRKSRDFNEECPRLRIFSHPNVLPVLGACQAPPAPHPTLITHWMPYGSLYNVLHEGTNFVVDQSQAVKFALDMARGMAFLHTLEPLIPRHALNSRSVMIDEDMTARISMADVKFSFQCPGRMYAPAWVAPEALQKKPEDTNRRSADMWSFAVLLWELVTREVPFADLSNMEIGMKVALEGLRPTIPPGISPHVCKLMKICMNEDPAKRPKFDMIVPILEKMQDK
UniProt O88466: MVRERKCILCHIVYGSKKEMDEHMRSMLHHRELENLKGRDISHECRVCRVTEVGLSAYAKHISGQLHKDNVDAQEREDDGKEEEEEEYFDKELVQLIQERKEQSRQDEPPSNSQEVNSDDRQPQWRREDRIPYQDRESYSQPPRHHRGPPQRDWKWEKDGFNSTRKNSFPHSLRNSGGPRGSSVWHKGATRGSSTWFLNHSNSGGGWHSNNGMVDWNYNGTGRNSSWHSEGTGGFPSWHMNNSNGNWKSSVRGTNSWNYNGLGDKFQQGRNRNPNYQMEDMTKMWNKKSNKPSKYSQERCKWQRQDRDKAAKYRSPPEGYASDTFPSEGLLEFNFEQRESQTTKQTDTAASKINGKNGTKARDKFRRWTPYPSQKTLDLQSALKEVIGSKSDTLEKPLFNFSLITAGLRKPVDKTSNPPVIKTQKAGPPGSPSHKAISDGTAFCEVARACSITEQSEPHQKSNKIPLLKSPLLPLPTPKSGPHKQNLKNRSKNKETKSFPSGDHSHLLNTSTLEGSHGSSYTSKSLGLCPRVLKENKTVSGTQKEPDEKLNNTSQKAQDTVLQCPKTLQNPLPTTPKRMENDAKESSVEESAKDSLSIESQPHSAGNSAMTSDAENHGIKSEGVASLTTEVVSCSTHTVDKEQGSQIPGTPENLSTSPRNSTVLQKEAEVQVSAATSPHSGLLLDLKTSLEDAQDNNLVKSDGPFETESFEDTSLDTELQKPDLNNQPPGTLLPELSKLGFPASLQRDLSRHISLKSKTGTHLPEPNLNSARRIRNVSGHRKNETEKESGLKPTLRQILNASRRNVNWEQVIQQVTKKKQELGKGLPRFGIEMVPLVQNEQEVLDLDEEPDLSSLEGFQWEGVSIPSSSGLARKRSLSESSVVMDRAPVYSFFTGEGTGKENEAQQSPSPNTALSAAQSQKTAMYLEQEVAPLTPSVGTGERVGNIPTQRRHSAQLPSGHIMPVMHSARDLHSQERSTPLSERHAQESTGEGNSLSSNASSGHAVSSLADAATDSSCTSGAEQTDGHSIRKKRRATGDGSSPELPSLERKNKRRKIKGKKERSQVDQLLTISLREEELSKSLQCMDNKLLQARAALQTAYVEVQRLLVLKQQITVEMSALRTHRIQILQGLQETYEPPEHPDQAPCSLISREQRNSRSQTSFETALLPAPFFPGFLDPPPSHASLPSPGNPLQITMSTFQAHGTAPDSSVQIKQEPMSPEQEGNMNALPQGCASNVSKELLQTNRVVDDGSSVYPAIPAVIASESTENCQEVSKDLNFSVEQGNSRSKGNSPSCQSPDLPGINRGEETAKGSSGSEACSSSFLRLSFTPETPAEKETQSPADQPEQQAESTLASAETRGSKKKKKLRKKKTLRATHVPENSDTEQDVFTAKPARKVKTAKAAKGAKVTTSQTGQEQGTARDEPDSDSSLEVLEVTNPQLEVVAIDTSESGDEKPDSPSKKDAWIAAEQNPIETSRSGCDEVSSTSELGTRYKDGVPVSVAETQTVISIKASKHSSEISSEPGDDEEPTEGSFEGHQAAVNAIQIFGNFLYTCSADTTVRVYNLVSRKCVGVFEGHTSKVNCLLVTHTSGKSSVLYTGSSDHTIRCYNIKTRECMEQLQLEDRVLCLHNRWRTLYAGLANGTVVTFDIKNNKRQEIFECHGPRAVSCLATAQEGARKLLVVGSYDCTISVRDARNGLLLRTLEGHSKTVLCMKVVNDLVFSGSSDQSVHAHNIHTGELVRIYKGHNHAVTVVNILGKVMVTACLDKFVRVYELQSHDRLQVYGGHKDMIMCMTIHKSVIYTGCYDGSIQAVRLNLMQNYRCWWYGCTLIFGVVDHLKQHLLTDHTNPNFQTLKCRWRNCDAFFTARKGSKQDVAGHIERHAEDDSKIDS

compound: CN[C@@H]1C[C@H]2O[C@@](C)([C@@H]1OC)n1c3ccccc3c3c4c(c5c6ccccc6n2c5c31)C(=O)NC4 [staurosporine]; experiment: log2 fold change of tryptic peptide abundance, ligand vs vehicle (limited proteolysis) (log2 ratio); higher = more trypsin-susceptible (destabilized); details: ligand concentration: 20 uM; sample: mouse liver crude lysate; replicate design: treated separately

Question: For “UniProt O88531 (peptide sequence: LVQAQYWHDPIKESVYR, peptide start residue: 180)”, which log2 fold change is on record?
Answer: Its log2 fold change is 0.336.

Question: For “UniProt O88428 (peptide sequence: VALLQDPEFYEHR, peptide start residue: 331)”, which log2 fold change is on record?
Answer: The log2 fold change was -0.218.

Question: For “UniProt O88470 (peptide sequence: TGALHSRLDL, peptide start residue: 366)”, which log2 fold change is on record?
Answer: The log2 fold change was 0.0749.

Question: With “UniProt O70566 (peptide sequence: AKVEENEQK, peptide start residue: 487)” as the target, how does the log2 fold change read?
Answer: The log2 fold change was 0.268.

Question: “UniProt O55222 (peptide sequence: GDDTPLHLAASHGHR, peptide start residue: 66)” was tested. Which log2 fold change did it give?
Answer: Its log2 fold change is -0.316.

Question: For “UniProt O88466 (peptide sequence: HSAQLPSGHIMPVMHSAR, peptide start residue: 952)”, which log2 fold change is on record?
Answer: Its log2 fold change is -0.612.
